Measured values published in patent publication US20260021154A1, “HERBAL ANTI-INFAMMATORY COMPOSITION” (CIRA HERBALS LLP, priority 2022, published 2026).
Like-named read-outs stand apart in the source and are kept apart here.

Amino acid sequences for entries named in this document (tags omitted). Residues count along the entry.
UniProt P02769, 25-607: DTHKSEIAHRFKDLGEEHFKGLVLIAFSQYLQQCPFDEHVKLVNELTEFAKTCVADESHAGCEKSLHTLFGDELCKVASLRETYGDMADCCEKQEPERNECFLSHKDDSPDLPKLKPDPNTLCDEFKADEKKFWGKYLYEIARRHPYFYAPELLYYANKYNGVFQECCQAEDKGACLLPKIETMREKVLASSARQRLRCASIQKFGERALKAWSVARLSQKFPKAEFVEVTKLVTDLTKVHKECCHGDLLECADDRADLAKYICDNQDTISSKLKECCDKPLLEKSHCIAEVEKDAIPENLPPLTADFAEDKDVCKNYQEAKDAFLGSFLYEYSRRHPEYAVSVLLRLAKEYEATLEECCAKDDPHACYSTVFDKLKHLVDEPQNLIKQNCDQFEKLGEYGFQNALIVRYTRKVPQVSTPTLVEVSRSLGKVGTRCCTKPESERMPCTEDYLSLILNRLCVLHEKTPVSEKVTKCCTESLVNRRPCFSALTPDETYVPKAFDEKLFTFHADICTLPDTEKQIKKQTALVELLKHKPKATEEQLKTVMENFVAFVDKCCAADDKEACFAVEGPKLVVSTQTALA

Molecular target: bovine serum albumin (Bos taurus, UniProt P02769)
Conditions: for Inhibition of protein denaturation: bovine, 15 min, pH 7.2

IC50 (50% inhibition of protein denaturation): 16.83 µg | Inhibition of protein denaturation (0.2 µg/mL): 4.91% | Inhibition of protein denaturation (6.4 µg/mL): 69.75%
SMILES: CC(C)(C(=O)O)c1ccc(C(O)CCCN2CCC(C(O)(c3ccccc3)c3ccccc3)CC2)cc1 (stereo not drawn) [Fexofenadine]
